Laboratory results published in article PMC7347577.
These are yes or no findings as the source states them, for the method shown. In cells and extracts the contact can be indirect. Some entries that bind do so weakly or less than the wild type. Values belong to the substance of their own block, whether it stands above or below them.

Sequences of proteins named here, by UniProt entry; tags and fusion partners are left off.
UniProt P62630: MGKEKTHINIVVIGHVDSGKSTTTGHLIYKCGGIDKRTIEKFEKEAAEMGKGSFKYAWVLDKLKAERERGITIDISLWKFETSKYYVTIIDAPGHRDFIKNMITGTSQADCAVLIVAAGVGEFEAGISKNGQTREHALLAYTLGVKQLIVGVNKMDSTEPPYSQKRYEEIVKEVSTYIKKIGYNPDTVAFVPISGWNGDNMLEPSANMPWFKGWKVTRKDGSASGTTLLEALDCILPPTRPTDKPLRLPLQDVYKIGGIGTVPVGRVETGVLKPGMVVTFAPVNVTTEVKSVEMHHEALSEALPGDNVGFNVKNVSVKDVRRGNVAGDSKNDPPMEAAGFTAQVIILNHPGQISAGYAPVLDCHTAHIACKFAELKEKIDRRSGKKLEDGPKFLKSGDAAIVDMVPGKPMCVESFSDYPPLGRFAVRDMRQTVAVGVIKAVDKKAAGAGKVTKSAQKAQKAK
UniProt P10126: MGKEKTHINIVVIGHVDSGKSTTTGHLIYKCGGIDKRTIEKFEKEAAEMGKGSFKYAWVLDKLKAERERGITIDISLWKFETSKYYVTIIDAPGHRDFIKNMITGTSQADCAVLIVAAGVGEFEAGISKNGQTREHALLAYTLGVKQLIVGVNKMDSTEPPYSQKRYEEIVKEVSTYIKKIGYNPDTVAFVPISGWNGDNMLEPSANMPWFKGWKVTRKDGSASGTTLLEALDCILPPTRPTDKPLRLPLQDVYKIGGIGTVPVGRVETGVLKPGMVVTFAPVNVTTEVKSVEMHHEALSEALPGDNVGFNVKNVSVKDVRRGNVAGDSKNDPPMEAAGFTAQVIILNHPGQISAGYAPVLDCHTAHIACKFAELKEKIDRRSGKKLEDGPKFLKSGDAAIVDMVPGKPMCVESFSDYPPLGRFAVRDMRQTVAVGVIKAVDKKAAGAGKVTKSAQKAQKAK
UniProt P52631: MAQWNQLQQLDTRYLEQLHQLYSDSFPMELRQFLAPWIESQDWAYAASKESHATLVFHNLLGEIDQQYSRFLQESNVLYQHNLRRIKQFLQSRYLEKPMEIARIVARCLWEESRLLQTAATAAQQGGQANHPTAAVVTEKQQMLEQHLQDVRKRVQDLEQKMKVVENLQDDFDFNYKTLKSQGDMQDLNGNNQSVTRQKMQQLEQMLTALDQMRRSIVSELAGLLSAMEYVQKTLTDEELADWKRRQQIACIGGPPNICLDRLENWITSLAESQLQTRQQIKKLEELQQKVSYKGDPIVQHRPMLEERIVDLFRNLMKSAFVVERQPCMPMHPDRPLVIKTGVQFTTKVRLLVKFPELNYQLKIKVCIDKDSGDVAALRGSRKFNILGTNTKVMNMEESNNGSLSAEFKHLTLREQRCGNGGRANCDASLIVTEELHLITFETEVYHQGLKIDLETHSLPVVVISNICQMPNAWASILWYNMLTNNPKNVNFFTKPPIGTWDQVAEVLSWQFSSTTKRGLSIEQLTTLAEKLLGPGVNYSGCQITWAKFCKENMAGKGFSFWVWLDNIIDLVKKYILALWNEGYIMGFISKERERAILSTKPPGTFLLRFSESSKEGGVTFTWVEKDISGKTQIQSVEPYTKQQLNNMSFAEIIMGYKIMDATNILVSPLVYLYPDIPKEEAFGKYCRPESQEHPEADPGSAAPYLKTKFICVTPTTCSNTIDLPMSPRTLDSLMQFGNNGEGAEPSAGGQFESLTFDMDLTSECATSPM
UniProt O55170: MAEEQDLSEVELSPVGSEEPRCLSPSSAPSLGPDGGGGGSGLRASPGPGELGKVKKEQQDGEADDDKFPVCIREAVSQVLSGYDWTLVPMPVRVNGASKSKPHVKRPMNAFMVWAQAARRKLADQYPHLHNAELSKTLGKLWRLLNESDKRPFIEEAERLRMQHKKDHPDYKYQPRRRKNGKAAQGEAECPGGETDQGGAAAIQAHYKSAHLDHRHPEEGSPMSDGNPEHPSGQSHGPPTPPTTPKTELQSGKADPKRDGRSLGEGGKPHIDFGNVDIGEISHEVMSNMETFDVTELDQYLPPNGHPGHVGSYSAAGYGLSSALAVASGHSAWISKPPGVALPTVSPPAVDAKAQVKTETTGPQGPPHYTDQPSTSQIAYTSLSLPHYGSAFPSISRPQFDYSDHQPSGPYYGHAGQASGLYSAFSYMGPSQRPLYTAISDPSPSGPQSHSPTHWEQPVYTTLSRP
UniProt P70288: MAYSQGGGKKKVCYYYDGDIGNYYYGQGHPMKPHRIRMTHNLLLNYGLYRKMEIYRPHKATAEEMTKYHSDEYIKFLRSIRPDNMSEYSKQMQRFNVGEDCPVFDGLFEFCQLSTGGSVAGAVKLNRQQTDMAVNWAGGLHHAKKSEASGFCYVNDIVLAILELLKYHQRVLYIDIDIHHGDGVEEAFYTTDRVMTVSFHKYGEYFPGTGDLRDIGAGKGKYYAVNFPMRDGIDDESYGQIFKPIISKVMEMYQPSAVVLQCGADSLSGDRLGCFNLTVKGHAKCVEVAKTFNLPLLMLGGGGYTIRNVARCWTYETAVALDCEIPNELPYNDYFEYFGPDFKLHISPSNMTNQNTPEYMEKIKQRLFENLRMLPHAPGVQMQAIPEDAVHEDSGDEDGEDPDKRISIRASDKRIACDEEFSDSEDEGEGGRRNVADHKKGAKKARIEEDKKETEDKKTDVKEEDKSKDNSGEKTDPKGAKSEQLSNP
UniProt Q99MK2: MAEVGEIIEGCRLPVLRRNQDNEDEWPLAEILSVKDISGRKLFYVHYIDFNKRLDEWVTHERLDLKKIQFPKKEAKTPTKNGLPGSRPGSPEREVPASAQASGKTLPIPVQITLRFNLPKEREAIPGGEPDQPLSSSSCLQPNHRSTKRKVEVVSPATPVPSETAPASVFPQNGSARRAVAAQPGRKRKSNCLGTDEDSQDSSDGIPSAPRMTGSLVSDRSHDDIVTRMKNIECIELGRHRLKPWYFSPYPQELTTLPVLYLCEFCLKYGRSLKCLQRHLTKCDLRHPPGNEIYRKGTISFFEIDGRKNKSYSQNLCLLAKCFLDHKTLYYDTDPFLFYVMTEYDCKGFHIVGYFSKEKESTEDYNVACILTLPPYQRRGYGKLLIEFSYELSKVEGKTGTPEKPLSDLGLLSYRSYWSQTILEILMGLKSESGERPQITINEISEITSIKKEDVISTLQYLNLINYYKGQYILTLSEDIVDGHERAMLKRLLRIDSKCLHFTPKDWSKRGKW

Assays:
[1] = target: eukaryotic elongation factor 1A1 (eEF1A1), endogenous in primary rat Schwann cells (rat (endogenous in primary Schwann cells)) (UniProt P62630); assay: co-IP; IP of eEF1A1, Western blot of Tip60 and Stat3; lysates of rat Schwann cells induced to de-differentiate for 1 day, treated with the Tip60 inhibitor TH1834 or vehicle, or transduced with Stat3 shRNA or control shRNA lentiviruses
[2] = target: mouse eEF1A1-turbo GFP (C-ter), overexpressed in primary rat Schwann cells (mouse) (UniProt P10126); assay: co-IP; IP of GFP, Western blot of Sox10; nuclear and cytoplasmic fractions of rat Schwann cells transfected with eEF1A1-GFP or GFP and induced to de-differentiate for 1 day
[3] = target: eukaryotic elongation factor 1A1 (eEF1A1), endogenous in mouse sciatic nerve (mouse (endogenous in sciatic nerve)) (UniProt P10126); assay: co-IP; IP of eEF1A1 (GFP antibody as control), Western blot of HDAC2; pools of two adult mouse crushed or unlesioned contralateral sciatic nerves at 3dpl; RIPA buffer
[4] = target: Stat3, endogenous in primary rat Schwann cells (rat (endogenous in primary Schwann cells)) (UniProt P52631); assay: co-IP; IP of Stat3 (Flag antibody as control), Western blot of Tip60; lysates of rat Schwann cells induced to de-differentiate for 1 day

- binding [1]: binds
Substance: Stat3, endogenous in primary rat Schwann cells (from UniProt P52631 1-770)

- binding [2]: binds
Substance: Sox10, endogenous in primary rat Schwann cells (from UniProt O55170 1-466)

- binding [3]: binds
Substance: histone deacetylase HDAC2, endogenous in mouse sciatic nerve (from UniProt P70288 1-488) (enzyme)

- binding [4]: binds
- binding [1]: binds
Substance: lysine acetyltransferase Tip60, endogenous in primary rat Schwann cells (from UniProt Q99MK2 1-513) (enzyme)
